# Values joined by “and” are separate entries in the source; they are usually repeats but may differ in a detail not shown here. Equal entries are not always repeated.
# Experiments:
# soybean explants = assay: Soybean explant feeding 3 days with 50 mM cyclitol in 1% sucrose, slow drying time course, soluble carbohydrates in axis, cotyledon, seed coat and leaf
# buckwheat explants = assay: Buckwheat explant feeding with 100 mM cyclitol in 1% sucrose for 5 days, soluble carbohydrates in embryos and leaf disks; type: in vivo, Fagopyrum esculentum; settings: for Soluble carbohydrates in embryos of seeds from buckwheat explants: replicate values
# [1] = 3 days transport of sucrose (1%) and myo-inositol (50 mM), after 14 days slow drying, Rep 1
# [2] = 3 days transport of sucrose (1%) and myo-inositol (50 mM), after 14 days slow drying, Rep 2
# [3] = 3 days transport of sucrose (1%) and myo-inositol (50 mM), before slow drying, Rep 1
# [4] = 3 days transport of sucrose (1%) and myo-inositol (50 mM), before slow drying, Rep 2
# [5] = 3 days transport of sucrose (1%) without cyclitols, after 2 days slow drying, Rep 1
# [6] = 3 days transport of sucrose (1%) without cyclitols, after 2 days slow drying, Rep 2
# [7] = 3 days transport of sucrose (1%) without cyclitols, after 4 days slow drying, Rep 1
# [8] = 3 days transport of sucrose (1%) without cyclitols, after 4 days slow drying, Rep 2
# [9] = 3 days transport of sucrose (1%) without cyclitols, after 14 days slow drying, Rep 1
# [10] = 3 days transport of sucrose (1%) without cyclitols, after 14 days slow drying, Rep 2
# [11] = 3 days transport of sucrose (1%) without cyclitols, before slow drying, Rep 1
# [12] = 3 days transport of sucrose (1%) without cyclitols, before slow drying, Rep 2
structure (smiles),measurement,setting,value
"CO[C@H]1[C@H](O)[C@@H](O)[C@@H](O)[C@H](O)[C@@H]1O [D-Pinitol, 1D-3-O-methyl-chiro-inositol, reference compound]",Accumulation of soluble carbohydrates in soybean seed coats,"soybean explants; 3 days transport of sucrose (1%) and myo-inositol (50 mM), after 4 days slow drying, Rep 2",6.81 μg/seed coat
same,Accumulation of soluble carbohydrates in soybean axis,soybean explants; [1],6.70 μg/axis
same,Accumulation of soluble carbohydrates in soybean cotyledons,soybean explants; [1],61.67 μg/cotyledon
same,Accumulation of soluble carbohydrates in soybean seed coats,soybean explants; [1],12.13 μg/seed coat
same,Accumulation of soluble carbohydrates in soybean axis,soybean explants; [2],5.72 μg/axis
same,Accumulation of soluble carbohydrates in soybean cotyledons,soybean explants; [2],95.93 μg/cotyledon
same,Accumulation of soluble carbohydrates in soybean seed coats,soybean explants; [2],15.41 μg/seed coat
same,Accumulation of soluble carbohydrates in soybean axis,soybean explants; [3],5.89 μg/axis
same,Accumulation of soluble carbohydrates in soybean cotyledons,soybean explants; [3],99.88 μg/cotyledon
same,Accumulation of soluble carbohydrates in soybean axis,soybean explants; [4],5.97 μg/axis
same,Accumulation of soluble carbohydrates in soybean cotyledons,soybean explants; [4],127.21 μg/cotyledon
same,Accumulation of soluble carbohydrates in soybean axis,soybean explants; [5],7.28 μg/axis
same,Accumulation of soluble carbohydrates in soybean cotyledon,soybean explants; [5],162.30 μg/cotyledon
same,Accumulation of soluble carbohydrates in soybean seed coats,soybean explants; [5],16.22 μg/seed coat
same,Accumulation of soluble carbohydrates in soybean axis,soybean explants; [6],10.54 μg/axis
same,Accumulation of soluble carbohydrates in soybean cotyledon,soybean explants; [6],222.80 μg/cotyledon
same,Accumulation of soluble carbohydrates in soybean seed coats,soybean explants; [6],12.15 μg/seed coat
same,Accumulation of soluble carbohydrates in soybean axis,soybean explants; [7],4.24 μg/axis
same,Accumulation of soluble carbohydrates in soybean cotyledon,soybean explants; [7],187.65 μg/cotyledon
same,Accumulation of soluble carbohydrates in soybean seed coats,soybean explants; [7],20.16 μg/seed coat
same,Accumulation of soluble carbohydrates in soybean axis,soybean explants; [8],4.89 μg/axis
same,Accumulation of soluble carbohydrates in soybean cotyledon,soybean explants; [8],166.14 μg/cotyledon
same,Accumulation of soluble carbohydrates in soybean seed coats,soybean explants; [8],19.36 μg/seed coat
same,Accumulation of soluble carbohydrates in soybean axis,soybean explants; [9],8.64 μg/axis
same,Accumulation of soluble carbohydrates in soybean cotyledon,soybean explants; [9],98.90 μg/cotyledon
same,Accumulation of soluble carbohydrates in soybean seed coats,soybean explants; [9],25.66 μg/seed coat
same,Accumulation of soluble carbohydrates in soybean axis,soybean explants; [10],4.32 μg/axis
same,Accumulation of soluble carbohydrates in soybean cotyledon,soybean explants; [10],153.50 μg/cotyledon
same,Accumulation of soluble carbohydrates in soybean seed coats,soybean explants; [10],16.34 μg/seed coat
same,Accumulation of soluble carbohydrates in soybean axis,soybean explants; [11],10.61 μg/axis
same,Accumulation of soluble carbohydrates in soybean cotyledon,soybean explants; [11],199.64 μg/cotyledon
same,Accumulation of soluble carbohydrates in soybean axis,soybean explants; [12],11.12 μg/axis
same,Accumulation of soluble carbohydrates in soybean cotyledon,soybean explants; [12],176.34 μg/cotyledon
same,increase of the free cyclitol fed to explants,soybean explants; cotyledon tissues of dry seeds (14 days slow drying),2 fold
same,increase of the free cyclitol fed to explants,soybean explants; leaf tissues at 24 hours after the start of feeding,5 fold
same,change after feeding myo-inositol,soybean explants; seed coat of dry seeds (14 days slow drying),no increase
same,Soluble carbohydrates in embryos of seeds from buckwheat explants,"buckwheat explants; fed 100 mM D-chiro-inositol in 1% sucrose solution 5 days, 2 days slow drying",0 μg/embryo
same,Soluble carbohydrates in embryos of seeds from buckwheat explants,"buckwheat explants; fed 100 mM D-chiro-inositol in 1% sucrose solution 5 days, 4 days slow drying",0 μg/embryo
same,Soluble carbohydrates in embryos of seeds from buckwheat explants,"buckwheat explants; fed 100 mM D-chiro-inositol in 1% sucrose solution 5 days, 7 days slow drying",0 μg/embryo
same,Soluble carbohydrates in leaves from buckwheat explants,"buckwheat explants; fed 100 mM D-chiro-inositol in 1% sucrose solution, after 1 hour feeding",0 μg/10 mg leaf disk
same,Soluble carbohydrates in embryos of seeds from buckwheat explants,"buckwheat explants; fed 100 mM D-chiro-inositol in 1% sucrose solution, after 1 day feeding",0 μg/embryo
same,Soluble carbohydrates in leaves from buckwheat explants,"buckwheat explants; fed 100 mM D-chiro-inositol in 1% sucrose solution, after 24 hours feeding",0 μg/10 mg leaf disk
same,Soluble carbohydrates in leaves from buckwheat explants,"buckwheat explants; fed 100 mM D-chiro-inositol in 1% sucrose solution, after 72 hours feeding",0 μg/10 mg leaf disk
same,Soluble carbohydrates in embryos of seeds from buckwheat explants,"buckwheat explants; fed 100 mM D-chiro-inositol in 1% sucrose solution, after 5 days feeding",0 μg/embryo
same,Soluble carbohydrates in embryos of seeds from buckwheat explants,"buckwheat explants; fed 100 mM D-pinitol in 1% sucrose solution 5 days, 2 days slow drying",163.47 μg/embryo and 56.90 μg/embryo and 230.83 μg/embryo
same,Soluble carbohydrates in embryos of seeds from buckwheat explants,"buckwheat explants; fed 100 mM D-pinitol in 1% sucrose solution 5 days, 4 days slow drying",162.97 μg/embryo and 173.51 μg/embryo and 134.07 μg/embryo
same,Soluble carbohydrates in embryos of seeds from buckwheat explants,"buckwheat explants; fed 100 mM D-pinitol in 1% sucrose solution 5 days, 7 days slow drying",85.34 μg/embryo and 129.52 μg/embryo and 148.04 μg/embryo
same,Soluble carbohydrates in leaves from buckwheat explants,"buckwheat explants; fed 100 mM D-pinitol in 1% sucrose solution, after 1 hour feeding",2.45 μg/10 mg leaf disk
same,Soluble carbohydrates in embryos of seeds from buckwheat explants,"buckwheat explants; fed 100 mM D-pinitol in 1% sucrose solution, after 1 day feeding",35.53 μg/embryo
same,Soluble carbohydrates in leaves from buckwheat explants,"buckwheat explants; fed 100 mM D-pinitol in 1% sucrose solution, after 24 hours feeding",121.45 μg/10 mg leaf disk
same,Soluble carbohydrates in leaves from buckwheat explants,"buckwheat explants; fed 100 mM D-pinitol in 1% sucrose solution, after 72 hours feeding",64.73 μg/10 mg leaf disk
same,Soluble carbohydrates in embryos of seeds from buckwheat explants,"buckwheat explants; fed 100 mM D-pinitol in 1% sucrose solution, after 5 days feeding",263.02 μg/embryo and 328.27 μg/embryo and 204.10 μg/embryo
same,Soluble carbohydrates in embryos of seeds from buckwheat explants,"buckwheat explants; fed 100 mM myo-inositol in 1% sucrose solution 5 days, 2 days slow drying",0 μg/embryo
same,Soluble carbohydrates in embryos of seeds from buckwheat explants,"buckwheat explants; fed 100 mM myo-inositol in 1% sucrose solution 5 days, 4 days slow drying",tr
same,Soluble carbohydrates in embryos of seeds from buckwheat explants,"buckwheat explants; fed 100 mM myo-inositol in 1% sucrose solution 5 days, 7 days slow drying",tr
same,Soluble carbohydrates in embryos of seeds from buckwheat explants,"buckwheat explants; fed 100 mM myo-inositol in 1% sucrose solution, after 1 day feeding",0 μg/embryo
same,Soluble carbohydrates in embryos of seeds from buckwheat explants,"buckwheat explants; fed 100 mM myo-inositol in 1% sucrose solution, after 5 days feeding",tr and 0 μg/embryo
same,Soluble carbohydrates in embryos of seeds from buckwheat explants,"buckwheat explants; fed 1% sucrose (without cyclitols) solution 5 days, 2 days slow drying",tr (2×) and 0 μg/embryo
same,Soluble carbohydrates in embryos of seeds from buckwheat explants,"buckwheat explants; fed 1% sucrose (without cyclitols) solution 5 days, 4 days slow drying",0 μg/embryo
same,Soluble carbohydrates in embryos of seeds from buckwheat explants,"buckwheat explants; fed 1% sucrose (without cyclitols) solution 5 days, 7 days slow drying",tr and 0 μg/embryo
same,Soluble carbohydrates in leaves from buckwheat explants,"buckwheat explants; fed 1% sucrose (without cyclitols) solution, after 1 hour feeding",0 μg/10 mg leaf disk
same,Soluble carbohydrates in leaves from buckwheat explants,"buckwheat explants; fed 1% sucrose (without cyclitols) solution, after 24 hours feeding",0 μg/10 mg leaf disk
same,Soluble carbohydrates in leaves from buckwheat explants,"buckwheat explants; fed 1% sucrose (without cyclitols) solution, after 72 hours feeding",0 μg/10 mg leaf disk
same,Soluble carbohydrates in embryos of seeds from buckwheat explants,"buckwheat explants; fed 1% sucrose (without cyclitols) solution, after 5 days feeding",tr and 0 μg/embryo

# Reference: patent US9926581B2, “Fagopyritol synthase genes and uses thereof” (Cornell Research Foundation, Inc., priority 2002, dated 2018)
